In PubChem BioAssay AID493014 (National Center for Advancing Translational Sciences (NCATS), 2011):
Screen size: about 340,000 compounds; about 170 (0.05%) were called active. The inconclusive results got no clear call from the source; some entries with a clear call stand among them for comparison. Calls follow the shape of the dose curve; as a rule, active = well fitted inhibition curve with a large enough effect in the signal ratio, with a control signal flat (not every such curve was filed as active); inconclusive = small, poorly fitted or top-dose-only effect, or effect the other way, or a change in a side signal; inactive = flat fitted curve, though single readings scatter; the % refers to the signal ratio. Potencies beside an inconclusive call are fits to weak or partial responses and may not hold up.

Experiment: qHTS Assay to Find Inhibitors of Chronic Active B-Cell Receptor Signaling;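 as to activity change, negative = inhibition: plate controls were basal doxycycline-induced cells for no effect and cells given 10 µM MG132 for full effect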
Conditions: ABC-DLBCL IkBa-CBG/CBR reporter, luminescence ratio (green luciferase fused to IkBa over red control in TMD8 lymphoma cells), 4 h; activity change, negative = inhibition: at 46.1 µM (top of the series)
Summary of the method: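 Concentration-response series (up to 46 uM) were applied to TMD8 dual-reporter cells for 4 h at 37C with doxycycline. Green/red ratio, after filter-overlap correction, defined %Activity; red signal alone was normalised to basal cells and zero luminescence.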
Potency is read from the fitted curve at half-maximal effect.

Compound | activity change, negative = inhibition | Potency
CCCn1c(SCC(=O)N2CCCCC2)nnc1-c1ccccn1 | inactive: -5.04% | 
O=c1[nH]n2c(=O)c3c([nH]c2c1N=Nc1cccc(Cl)c1)CCCC3 | inconclusive: 9.1% | 
Cc1ccc(-n2ncc(C(=O)Nc3cc(Cl)ccc3Cl)c2C2CCNCC2)cc1 |  | inconclusive: 25.1 µM [falling, single point]
CCN1CCN(C(=O)c2ccc(S(=O)(=O)Nc3ccccc3)cc2)CC1 | inactive: -0.459% | 
COc1ccc(C(=O)Nc2c(Cl)cc(Cl)cc2C(=O)NCCN2CCOCC2)cc1 | inconclusive: -13.7% | 
COCCCN=C1NN=C(c2cc(C)n(Cc3ccco3)c2C)CS1 |  | inconclusive: 25.9 µM [falling, partial curve, poor fit]
CCC(=O)Nc1ccc(C(=O)n2ccc(C)n2)cc1 | inconclusive: 3.72% | 
N/C(=N\OC(=O)COc1ccc(Br)cc1Cl)c1cccnc1 | inconclusive: 8.16% | 
Cc1ccccc1NC(=O)c1ccc2ccccc2c1 |  | inconclusive: 35.5 µM [rising, single point]
CC(C)(C)NC(=O)C(c1ccncc1)N(Cc1cccs1)C(=O)Cn1nnc(-c2ccc(F)cc2)n1 (stereo not given) |  | inconclusive: 14.6 µM [activator, single point]
CCc1ccc(NC(=O)c2ccc3nc(N)sc3c2)cc1 |  | inconclusive: 4.11 µM [falling, partial curve]
N#Cc1cccc(NC(=O)CCC2CCCC2)c1 | inconclusive: 4.13% | 
C#CCOCCOCCOCCNc1nc(N2CCN(C(=O)CCCCCCCCCCNC(=O)[C@H](CCCCN)n3cc(C)nn3)CC2)nc(N2CCN(C(=O)CCCCCCCCCCNC(=O)[C@@H]([C@H](C)O)n3cc(C)nn3)CC2)n1 | inconclusive: -0.157% | 
O=C(CSc1nc2ccccc2c(=O)[nH]1)N1CCCCC1 | inconclusive: 0.511% | 
Cc1ccc(NC(=S)NC(=O)/C=C/c2ccco2)c(O)c1 |  | inconclusive: 35.5 µM [falling, partial curve, poor fit]
Cc1ccc(S(=O)(=O)N(C)CC(=O)Nc2nc3ccccc3s2)cc1 | inactive: 12.3% | 
CCOC(=O)c1sc(=S)n(Cc2ccccc2)c1C | inconclusive: 6.98% | 
CCCCn1c(N)c(N(CC(C)C)C(=O)C2CCCO2)c(=O)[nH]c1=O (stereo not given) | inactive: -1.81% | 
CCS(=O)(=O)N1CCN(c2ccc([N+](=O)[O-])c(NCC3CCCO3)c2)CC1 (stereo not given) | inactive: -15.6% | 
Cn1c(=O)c2c(ncn2Cc2ccc(Cl)cc2)n(C)c1=O | inactive: -5.2% | 
CCCCn1c(=N)n(CCOc2ccc(C)cc2)c2ccccc21 | inconclusive: -7.95% | 
Cc1c(C(=O)N/N=C/c2ccc(N(C)C)cc2)[nH]c2ccc(Cl)cc12 |  | inconclusive: 4.11 µM [falling, full curve]
O=c1cc(N2CCCCC2)c(-c2ccccc2)nn1Cc1c(Cl)cccc1Cl | inconclusive: 5.3% | 
Cc1cnc(C(=O)Nc2nnc(C(C)C)s2)cn1 | inconclusive: 4.22% | 
CCOc1ccccc1NC(=O)CN(C)S(=O)(=O)c1cnc[nH]1 | inconclusive: 4.19% | 
COc1ccc(/C=C/C(=O)Nc2cc(C)nn2-c2nc3ccccc3[nH]2)cc1 | inconclusive: -12.6% | 
O=C1CCc2cc(S(=O)(=O)NCc3ccc(F)cc3)cc3c2N1CCC3 | inconclusive: -19.4% | 

Compound | activity change, negative = inhibition | Potency
CCN(CC)S(=O)(=O)c1cccc(NC(=O)COC(=O)c2cc(=O)c3ccccc3o2)c1 |  | inconclusive: 10 µM [falling, partial curve, poor fit]
Cc1c(C(=O)N/N=C/c2cccs2)nc2ccccn12 | inconclusive: -18.3% | 
O=C(CSc1nc2cc(S(=O)(=O)N3CCOCC3)ccc2o1)Nc1c(F)cccc1F | inactive: 0.0653% | 
CC(C)c1ccc(C(=O)Nc2nnc(S(=O)(=O)N3CCOCC3)s2)cc1 | inconclusive: 16.5% | 
c1ccc2c(c1)nc(NCC1CCCO1)c1nnnn12 (stereo not given) |  | inconclusive: 6.51 µM [falling, partial curve, poor fit]
Cc1ccc(NC(=O)C2CC(=O)OC23CCOC(C)(C)C3)cc1 (stereo not given) |  | inconclusive: 0.164 µM [falling, full curve, poor fit]
O=c1[nH]c2ccccc2c2cn(-c3ccccc3)nc12 | inconclusive: -26.4% | 
COC(=O)c1ccc(C)c(NC(=O)CCc2ccc(OC)c(OC)c2)c1 | inconclusive: -3.7% | 
Cc1cc(N)n2nc(C(F)(F)F)nc2n1 | inconclusive: 8.49% | 
Cc1cccc(C(=O)N2CCN(C(=O)c3cccc(C)c3)C(C)C2)c1 (stereo not given) | inconclusive: -20.5% | 
CC1CCCCN1c1ncnc2ccccc12 (stereo not given) | inconclusive: 1% | 
CC(=O)Nc1ccc2c(CSc3nnc(-c4cccnc4)n3-c3ccc(C)cc3C)cc(=O)oc2c1 | inactive: -6.16% | 
COc1cccc(-c2nc(CS(=O)CC(=O)NCCc3ccc(C)cc3)c(C)o2)c1 (stereo not given) | inactive: -18% | 
C=CCNc1oc(-c2cccs2)nc1S(=O)(=O)c1ccccc1 | inconclusive: 8.03% | 
Cc1ccc(N(C(=O)c2ccc3c(c2)OCO3)C2C=CS(=O)(=O)C2)cc1C (stereo not given) | inconclusive: -7.4% | 
O=C(CCCOc1ccc(Cl)cc1)Nc1ccc(N2CCOCC2)cc1 |  | inconclusive: 35.5 µM [falling, single point]
CN(CCCNC(=O)Cn1cc2c(n1)CCCC2)C1CCCCC1 | inconclusive: 17.7% | 
Cc1sc(=NC(=O)c2ccco2)n(C)c1-c1ccccc1 | inactive: -0.359% | 
CCC(C)N(C(=O)COC(=O)c1cc([N+](=O)[O-])ccc1N1CCOCC1)C1CCS(=O)(=O)C1 (stereo not given) |  | inconclusive: 23.1 µM [falling, single point]
COc1ccc(NC(=O)c2cc([N+](=O)[O-])ccc2N2CCCCC2)cc1 |  | inconclusive: 20 µM [falling, partial curve, poor fit]
O=Cc1ccc(OCC(=O)N2CCc3ccccc32)c(Br)c1 |  | inconclusive: 16.4 µM [falling, partial curve]
Cc1nnsc1C(=O)Nc1ccc(Cl)cc1Cl | inconclusive: 5.81% | 
COc1ccccc1CNC(=O)CSc1nc(=O)[nH]c2c1CCC2 |  | inconclusive: 12.6 µM [falling, partial curve, poor fit]
N#C/C(=C\c1ccc(O)c([N+](=O)[O-])c1)c1nc2ccccc2s1 | inconclusive: 9.29% | 
COc1ccccc1CNC(=O)CSc1ccccc1 | inconclusive: 0.883% | 
O=C(NP(=O)(N1CCOCC1)N1CCOCC1)C1=C(N2CCOCC2)/C(=C\c2ccccc2)CC1 | inactive: 0.889% | 
COc1ccc(Cl)cc1NC(=O)c1noc(C)c1[N+](=O)[O-] |  | inconclusive: 7.08 µM [falling, partial curve]

Compound | activity change, negative = inhibition | Potency
Cn1cnc2cc(NC(=O)c3cccs3)ccc21 |  | inconclusive: 35.5 µM [rising, single point]
CCC1(C)Nc2ccccc2C(=O)N1O (stereo not given) | inconclusive: -3.68% | 
COc1cccc(CNC(=O)CN2C(=O)N(c3cccc(Cl)c3)S(=O)(=O)c3ccccc32)c1OC | inconclusive: 4.88% | 
Cc1c(CN2CCC(CO)(CCOc3ccccc3)CC2)[nH]c2ccc(Cl)cc12 |  | inconclusive: 35.5 µM [rising, single point]
CCN1CCN(c2cc(C)c3cc(NC(=S)NCCCN4CCc5ccccc5C4)ccc3n2)CC1 | inconclusive: -19.9% | 
CCCOc1ccccc1Nc1nnc(C)c(=O)[nH]1 | inconclusive: 8.62% | 
COc1ccc(CNC(=O)C2CCCN(S(=O)(=O)c3c(C)n[nH]c3C)C2)cc1 (stereo not given) |  | inconclusive: 18.4 µM [falling, single point]
CC(=O)N/C(=C\c1ccccc1)C(=O)OCC(=O)Nc1ccc(C)c(S(=O)(=O)N(C)C)c1 | inconclusive: -0.624% | 
COc1ccc(-c2cc(C(=O)Nc3cc(OC)c(OC)c(OC)c3)no2)cc1OC |  | inconclusive: 25.1 µM [falling, single point]
OC(CN1CCNCC1)Cn1c2ccccc2c2ccccc21 (stereo not given) | inconclusive: -17.9% | 
CO/N=C(/CS(=O)(=O)c1ccc(C)cc1)c1ccc(OC)cc1 | inconclusive: -2.86% | 
Cc1cc(N2CCN(C)CC2)nc2ccc(NC(=S)N3CCCCC3)cc12 | inconclusive: -14.7% | 
COCCC(=O)N1CCC(n2nccc2NC(=O)c2ccccc2C)CC1 | inactive: -0.304% | 
CC1=C(C#N)c2nc(N)c(C#N)c(C)c2/C1=C\c1ccc(C)cc1 | inconclusive: 6.23% | 
Oc1ccc(COCc2ccc(F)cc2)c2cccnc12 |  | inconclusive: 16.4 µM [falling, partial curve, poor fit]
COc1ccccc1-c1ccc(SCC(=O)NC2CCCC2)nn1 |  | inconclusive: 13 µM [falling, partial curve, poor fit]
CC(C)(C)c1ccc(C(=O)/C=C2\NC(=O)CS2)cc1 | inconclusive: 10.5% | 
COC(=O)Nc1ccc(S(=O)(=O)Nc2ccc(O)cc2)cc1 | inconclusive: 8.14% | 
Nc1nc(-c2ccccc2)[nH]c(=O)c1N | inconclusive: 3.79% | 
COc1ccccc1CCN1CCCC(CN(C)C(=O)CCC(=O)N(C)C)C1 (stereo not given) | inactive: -2.17% | 
CCOC(=O)CCc1nc2ccccc2[nH]c1=O | inconclusive: 3.67% | 
CCCCCCOC(=O)c1ccc(NC(=O)c2cc(OC)c(OC)c(OC)c2Br)cc1 | inactive: 17.3% | 
Cc1c(Cl)cnc(NC(=O)COC(=O)c2ccc3c(c2)OCO3)c1Cl | inconclusive: 0.84% | 
CCC1(CC)Cc2ccccc2C(=O)N1 | inconclusive: 6.7% | 
CC(C)CC(c1nnnn1Cc1cccs1)N1CCN(c2nc3ccccc3s2)CC1 (stereo not given) | inconclusive: -81.7% | 
Cc1ccccc1-c1noc(-c2ccccc2C(=O)NCc2ccco2)n1 | inconclusive: 4.67% | 

Quoted from the listing.
Under activity change, negative = inhibition, CO/N=C(/CS(=O)(=O)c1ccc(C)cc1)c1ccc(OC)cc1 is entered as inconclusive: -2.86%
Under Potency, COc1ccc(-c2cc(C(=O)Nc3cc(OC)c(OC)c(OC)c3)no2)cc1OC is entered as inconclusive: 25.1 µM [falling, single point]
Under activity change, negative = inhibition, CCN1CCN(c2cc(C)c3cc(NC(=S)NCCCN4CCc5ccccc5C4)ccc3n2)CC1 is entered as inconclusive: -19.9%
Under activity change, negative = inhibition, Cc1ccccc1-c1noc(-c2ccccc2C(=O)NCc2ccco2)n1 is entered as inconclusive: 4.67%
Under activity change, negative = inhibition, CCCCCCOC(=O)c1ccc(NC(=O)c2cc(OC)c(OC)c(OC)c2Br)cc1 is entered as inactive: 17.3%
Under activity change, negative = inhibition, CCCOc1ccccc1Nc1nnc(C)c(=O)[nH]1 is entered as inconclusive: 8.62%
